Results published in PubChem BioAssay AID504810 (National Center for Advancing Translational Sciences (NCATS), 2011).
The campaign covered roughly 330,000 compounds. About 670 (0.2%) were called active. The shares of active, inactive and inconclusive entries below differ from those in the screen.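 How the source made its calls: active means activity change below a set negative limit, meaning inhibition stronger than a set level (cut at about -70% in these data); inconclusive means activity change between two set negative limits; inactive means the rest.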

Chains of the proteins cited; added tags and fusions are not shown.
UniProt P16473, whole entry, looked up: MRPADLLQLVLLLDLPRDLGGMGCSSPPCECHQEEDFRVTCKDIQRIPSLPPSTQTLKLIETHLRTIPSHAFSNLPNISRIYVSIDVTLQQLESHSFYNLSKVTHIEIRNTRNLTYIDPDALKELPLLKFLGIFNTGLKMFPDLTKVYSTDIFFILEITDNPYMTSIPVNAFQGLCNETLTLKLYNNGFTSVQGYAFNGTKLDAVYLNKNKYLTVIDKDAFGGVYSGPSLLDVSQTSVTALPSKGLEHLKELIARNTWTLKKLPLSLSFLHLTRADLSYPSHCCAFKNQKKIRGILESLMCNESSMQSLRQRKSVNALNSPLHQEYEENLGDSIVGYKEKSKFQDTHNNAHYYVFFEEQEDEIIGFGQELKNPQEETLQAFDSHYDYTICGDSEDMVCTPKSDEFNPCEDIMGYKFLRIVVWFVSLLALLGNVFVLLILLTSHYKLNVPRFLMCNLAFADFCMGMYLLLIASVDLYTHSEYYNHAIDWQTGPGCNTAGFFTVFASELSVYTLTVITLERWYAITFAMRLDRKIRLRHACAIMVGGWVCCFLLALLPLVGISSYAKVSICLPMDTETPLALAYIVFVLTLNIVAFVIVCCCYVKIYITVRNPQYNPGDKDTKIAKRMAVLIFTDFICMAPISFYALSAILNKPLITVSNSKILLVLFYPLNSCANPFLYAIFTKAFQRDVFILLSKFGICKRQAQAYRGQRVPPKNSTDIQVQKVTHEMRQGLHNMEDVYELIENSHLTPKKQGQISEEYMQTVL

What follows are molecules tested against Thyrotropin receptor (Homo sapiens) (UniProt P16473) (assay: Antagonists of the Thyroid Stimulating Hormone Receptor: HTS campaign). Details: TSHR-expressing cells, TSH-stimulated cAMP HTRF, 2 h; at 11.5 µM; hits give low values.
In short: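 Inhibition of cAMP made by TSHR-expressing cells under TSH stimulation (4nM final, EC80; 2 h, 37 deg C) is quantified with a one-step lysis HTRF kit, anti-cAMP cryptate versus cAMP-d2.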
On the % scale 0 is the no-effect control and ±100 the full control effect.

Activity change, negative = inhibition, inactive:
CCCCN1CC(=O)N2[C@H]3c4ccccc4OC[C@@H]3[C@H](C(=O)OCC)[C@]2(C)C1=O -1.43%
Cc1nc(SC2CC(=O)N(c3ccccc3)C2=O)n[nH]1 (configuration not stated) 21.4%
COc1ccc(-n2nc(C(=O)NCC(=O)N3CCOCC3)c3ccccc3c2=O)c(OC)c1 2.24%
CCn1c(-c2ccccc2O)n[nH]c1=S -4.56%
CCc1cc2c(=O)n(Cc3ccco3)c(SCC(=O)N(C)C3CCS(=O)(=O)C3)nc2s1 (configuration not stated) 13.1%
C[C@H](NC(=O)c1ccccc1Cl)C(=O)OCC(=O)NNC(=O)c1cccs1 3.37%
O=C(NN=C1CCC(=NNC(=O)c2ccccn2)CC1)c1ccccn1 1.3%

Three successive records from above, for reference:
Activity change, negative = inhibition, inactive:
CCCCN1CC(=O)N2[C@H]3c4ccccc4OC[C@@H]3[C@H](C(=O)OCC)[C@]2(C)C1=O -1.43%
Cc1nc(SC2CC(=O)N(c3ccccc3)C2=O)n[nH]1 (configuration not stated) 21.4%
COc1ccc(-n2nc(C(=O)NCC(=O)N3CCOCC3)c3ccccc3c2=O)c(OC)c1 2.24%

Following part:

Activity change, negative = inhibition, inconclusive:
COc1ccc(C(=O)Nc2ccc(-c3ccc(C)o3)cc2)cc1S(=O)(=O)N1CCOCC1 -52.5%
COC(=O)CSc1nc(-c2ccccc2)cc(-c2ccco2)c1C#N -61.6%
O=C(c1ccco1)N1CCN(c2ncnc3c2nnn3Cc2ccccc2Cl)CC1 -50.4%
CCC(=O)c1ccc(OCC(=O)Nc2cccc(S(=O)(=O)N(C)c3ccccc3)c2)cc1 -65.9%
CCCc1nnc(NC(=O)c2nc(S(=O)(=O)Cc3cccc(C)c3)ncc2Cl)s1 -55.9%
CCCOc1ccc(C(=O)NNC(=S)NC(=O)c2cccs2)cc1 -63.7%
COc1ccccc1CNC(=O)CNC(=O)N1CC(=O)Nc2ccccc21 -54.6%
CC(C)(C)Cc1nnc(NS(=O)(=O)c2ccc([N+](=O)[O-])cc2)s1 -50.7%
COc1ccc(-n2c(C)cc(C(=O)CSc3nnc(-c4cccs4)o3)c2C)cc1 -55.3%
NC(=S)n1[nH]c(-c2ccc([N+](=O)[O-])cc2)c(N=Nc2cccc([N+](=O)[O-])c2)c1=O -66.9%
CC(C)N(Cc1ccccc1)C(=O)COC(=O)c1cnc(Cl)c(Cl)c1 -62.3%
Cc1ccc(NC(=O)c2ccccc2NS(=O)(=O)c2ccc(Cl)s2)cc1S(=O)(=O)N1CCOCC1 -64.1%
Cc1cc(NC(=O)c2ccco2)c(=O)n(Cc2cccc(C(F)(F)F)c2)c1 -59.5%
Cc1ccc(NC(=O)c2cnc(N3CCN(c4ccccn4)CC3)c3ccccc23)c(Br)c1 -66.4%
COc1ccc(-c2cc(C)no2)cc1S(=O)(=O)N1CCN(c2ccccc2F)CC1 -63.8%
CCOC(=O)c1c(-c2ccccc2)csc1NC(=O)c1nn(CC)cc1Br -60.7%
COc1ccc(C(=O)NC2CCCc3c2cnn3-c2cccc(C)c2C)c(OC)n1 (configuration not stated) -59.7%
Cc1ccccc1C(=O)N1CCN(c2ccc(NC(=O)c3ccc4c(c3)OCCO4)cc2)CC1 -54.9%
Cc1ccc(NC(=O)c2nc(S(=O)(=O)Cc3ccccc3C)ncc2Cl)cc1C -63.2%
CCN(CC)c1ccc(/C=C2/C(=O)c3ccc(C(=O)O)cc3C2=O)cc1 -64.6%
CCCCC(c1nnnn1CC1CCCO1)N1CCN(c2cccc(C)c2C)CC1 (configuration not stated) -51.9%
Cc1nn(-c2ccccc2)c(C)c1NC(=O)COc1ccc(Br)cc1Cl -52%
COc1ccc(OC)c(-c2csc(NC(=O)c3ccc(OCC4CCCO4)cc3)n2)c1 (configuration not stated) -66.1%
CC1(C)CC2(CCCN3C(=O)CSC32)CCS1 (configuration not stated) -56.1%
O=C(CSc1nnnn1C1CCCCC1)N1CCN(C(=O)c2ccco2)CC1 -54.8%
Cc1cn([C@@H](CCCCNC(=O)OC(C)(C)C)C(=O)NCCCCCCCCCCC(=O)N2CCN(C(=O)OC(C)(C)C)CC2)nn1 -51.8%
O=C(Cc1ccc(Br)cc1)N1CCOCC1 -51.6%
CCCCN(CC)C(=O)C1CCCN(S(=O)(=O)c2cccc3nsnc23)C1 (configuration not stated) -50.9%
COc1ccc(Cc2nc(-c3ccc(-n4cccc4)cc3)no2)cc1OC -50.9%
O=S(=O)(c1ccc(SCCOc2ccc(Cl)cc2)nc1)N1CCCC1 -54.4%
CN(CCCC(=O)Nc1ccc(Br)cc1F)S(=O)(=O)c1ccccc1 -54.2%
Cc1ccccc1NC(=O)C1C2CCCCC21 (configuration not stated) -54.1%
CSc1nnc(NC(=O)c2nc(S(=O)(=O)Cc3cccc(C)c3)ncc2Cl)s1 -55%
O=C(OCc1cc(Cl)ccc1OC(F)F)c1cncc(Br)c1 -56.3%
O=C(Nc1ccc(Cl)c(Cl)c1)Nc1ccccc1O -58.1%
Cc1ccc(NC(=O)C2CCN(S(=O)(=O)c3ccc4c(c3)NC(=O)C(C)S4)CC2)cc1Cl (configuration not stated) -53.1%
COc1ccc(C(=O)N2CCN(c3ccc([N+](=O)[O-])c(NCCc4ccc(OC)c(OC)c4)c3)CC2)cc1 -55.6%
CSCc1ccc(C(=O)N2CCCC(Nc3ccc(F)cc3)C2)o1 (configuration not stated) -50.3%
COc1ccc(C(=O)/C=C/c2ccc(OC)c(Cn3nnc4ccccc43)c2)cc1 -51.3%
O=C(COc1ccccc1/C=C1\SC(=S)NC1=O)Nc1ccc(F)cc1 -57.4%
COc1ccc(NS(=O)(=O)c2ccc(N/N=C(\C)c3ccncc3)c([N+](=O)[O-])c2)cc1 -57.4%

Two compounds drawn at random from the list so far:
Activity change, negative = inhibition, inconclusive:
CCCOc1ccc(C(=O)NNC(=S)NC(=O)c2cccs2)cc1 -63.7%
CCCCN(CC)C(=O)C1CCCN(S(=O)(=O)c2cccc3nsnc23)C1 (configuration not stated) -50.9%

Following part:

Activity change, negative = inhibition, active:
Cc1ccc(S(=O)(=O)c2c(C(=O)c3ccccc3)cnc3cc4c(cc23)OCCO4)cc1 -82.7%
Cc1ccccc1N1CCN(C2CCCN(C(=O)c3cnsn3)C2)CC1 (configuration not stated) -105%
O=C(Nc1cccc2ccccc12)c1ccccc1 -82%
CCOc1ccnc2c1c(=O)n(Cc1cc(OC)cc(OC)c1)c(=O)n2C -140%
